Some results were stated once for a whole list of compounds, not compound by compound.
System: Botrytis cinerea
Test: Botrytis cinerea necrosis areas on treated detached tomato leaves
Assay type: in vivo, Botrytis cinerea on Solanum lycopersicum
Conditions: 100 pM, day 8 after inoculation, control 33 mm^2 (FIG. 12A)
Method: For the performance of assays on the phytopathogenic Botrytis cinerea and Alternaria alternata fungi, the present inventors used spores of this microorganism obtained from cultures on solid PDA (Potato Dextrose Agar) sporulation substrate. The plates were inoculated with 20 μl of a conidial suspension at a concentration of 1×10^6 spores/ml and incubated for 15 days at 25° C. in the presence of diffused light, so as to obtain complete sporulation. The spores were then collected in 5 ml of sterile water and, in order to remove the mycelium, were filtered through glass wool, washed with sterile distilled water and collected by centrifugation at room temperature. The concentration of spores suitable for inoculation (10^5-10^7 spores/ml) was determined by the serial dilution method using a Burker cell counting chamber for spore counting.
The assay was carried out on a detached leaf by taking a compound leaf for each treated tomato plant and for each control plant. […]
The leaves were treated by applying 2 μl of a composition comprising the peptides PS1-70 and PS1-120 of the invention at a concentration of 100 pM, 100 fM or 1×PBS for the control leaves. […] The necrosis areas recorded on the control leaves were much larger than those detected on plants treated with the peptides of the invention. […]

B1: PS1-70: recombinant peptide contained in the amino-terminal region of the Prosystemin polypeptide, free of Systemin; expressed in E. coli (protein)
chain: MGTPSYDIKNKGDDMQEEPKVKLHHEKGGDEKEKIIEKETPSQDINNKDTISSYVLRDDTQEIPKMEHEE
modifications: Peptide PS1-70
notes: recombinant peptide contained in the amino-terminal region of the Prosystemin polypeptide, free of Systemin; expressed in E. coli
necrosis areas: ≤ 18 mm^2

B2: PS1-120: recombinant peptide contained in the amino-terminal region of the Prosystemin polypeptide, free of Systemin; expressed in E. coli (protein)
chain: MGTPSYDIKNKGDDMQEEPKVKLHHEKGGDEKEKIIEKETPSQDINNKDTISSYVLRDDTQEIPKMEHEEGGYVKEKIVEKETISQYIIKIEGDDDAQEKLKVEYEEEEYEKEKIVEKET
modifications: Peptide PS1-120
notes: as for B1
necrosis areas: ≤ 18 mm^2

Reference: US20230270119A1, “BIOSTIMULANT AND BIOPROTECTIVE PEPTIDES AND THEIR USE IN AGRICULTURE” (priority 2020, published 2023)
